Drawing on the supplement of paper PMC12819154, “High-throughput peptide-centric local stability assay extends protein–ligand identification to membrane proteins, tissues and bacteria” (Nature Structural & Molecular Biology, 2025), this text covers log2 fold change for nine targets.

Protein sequences, listed by entry. Tags and fused reporters are not part of them. Lines headed by an entry give the natural chain unless they say otherwise; changes in a name come on top.
UniProt Q8N5W9: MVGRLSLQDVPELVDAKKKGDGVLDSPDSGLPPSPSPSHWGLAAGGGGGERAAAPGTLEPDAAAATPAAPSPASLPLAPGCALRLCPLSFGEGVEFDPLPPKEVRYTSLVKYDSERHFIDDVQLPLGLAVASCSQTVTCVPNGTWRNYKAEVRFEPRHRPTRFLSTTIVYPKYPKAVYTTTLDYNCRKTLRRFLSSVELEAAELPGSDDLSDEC
UniProt Q8NFC6: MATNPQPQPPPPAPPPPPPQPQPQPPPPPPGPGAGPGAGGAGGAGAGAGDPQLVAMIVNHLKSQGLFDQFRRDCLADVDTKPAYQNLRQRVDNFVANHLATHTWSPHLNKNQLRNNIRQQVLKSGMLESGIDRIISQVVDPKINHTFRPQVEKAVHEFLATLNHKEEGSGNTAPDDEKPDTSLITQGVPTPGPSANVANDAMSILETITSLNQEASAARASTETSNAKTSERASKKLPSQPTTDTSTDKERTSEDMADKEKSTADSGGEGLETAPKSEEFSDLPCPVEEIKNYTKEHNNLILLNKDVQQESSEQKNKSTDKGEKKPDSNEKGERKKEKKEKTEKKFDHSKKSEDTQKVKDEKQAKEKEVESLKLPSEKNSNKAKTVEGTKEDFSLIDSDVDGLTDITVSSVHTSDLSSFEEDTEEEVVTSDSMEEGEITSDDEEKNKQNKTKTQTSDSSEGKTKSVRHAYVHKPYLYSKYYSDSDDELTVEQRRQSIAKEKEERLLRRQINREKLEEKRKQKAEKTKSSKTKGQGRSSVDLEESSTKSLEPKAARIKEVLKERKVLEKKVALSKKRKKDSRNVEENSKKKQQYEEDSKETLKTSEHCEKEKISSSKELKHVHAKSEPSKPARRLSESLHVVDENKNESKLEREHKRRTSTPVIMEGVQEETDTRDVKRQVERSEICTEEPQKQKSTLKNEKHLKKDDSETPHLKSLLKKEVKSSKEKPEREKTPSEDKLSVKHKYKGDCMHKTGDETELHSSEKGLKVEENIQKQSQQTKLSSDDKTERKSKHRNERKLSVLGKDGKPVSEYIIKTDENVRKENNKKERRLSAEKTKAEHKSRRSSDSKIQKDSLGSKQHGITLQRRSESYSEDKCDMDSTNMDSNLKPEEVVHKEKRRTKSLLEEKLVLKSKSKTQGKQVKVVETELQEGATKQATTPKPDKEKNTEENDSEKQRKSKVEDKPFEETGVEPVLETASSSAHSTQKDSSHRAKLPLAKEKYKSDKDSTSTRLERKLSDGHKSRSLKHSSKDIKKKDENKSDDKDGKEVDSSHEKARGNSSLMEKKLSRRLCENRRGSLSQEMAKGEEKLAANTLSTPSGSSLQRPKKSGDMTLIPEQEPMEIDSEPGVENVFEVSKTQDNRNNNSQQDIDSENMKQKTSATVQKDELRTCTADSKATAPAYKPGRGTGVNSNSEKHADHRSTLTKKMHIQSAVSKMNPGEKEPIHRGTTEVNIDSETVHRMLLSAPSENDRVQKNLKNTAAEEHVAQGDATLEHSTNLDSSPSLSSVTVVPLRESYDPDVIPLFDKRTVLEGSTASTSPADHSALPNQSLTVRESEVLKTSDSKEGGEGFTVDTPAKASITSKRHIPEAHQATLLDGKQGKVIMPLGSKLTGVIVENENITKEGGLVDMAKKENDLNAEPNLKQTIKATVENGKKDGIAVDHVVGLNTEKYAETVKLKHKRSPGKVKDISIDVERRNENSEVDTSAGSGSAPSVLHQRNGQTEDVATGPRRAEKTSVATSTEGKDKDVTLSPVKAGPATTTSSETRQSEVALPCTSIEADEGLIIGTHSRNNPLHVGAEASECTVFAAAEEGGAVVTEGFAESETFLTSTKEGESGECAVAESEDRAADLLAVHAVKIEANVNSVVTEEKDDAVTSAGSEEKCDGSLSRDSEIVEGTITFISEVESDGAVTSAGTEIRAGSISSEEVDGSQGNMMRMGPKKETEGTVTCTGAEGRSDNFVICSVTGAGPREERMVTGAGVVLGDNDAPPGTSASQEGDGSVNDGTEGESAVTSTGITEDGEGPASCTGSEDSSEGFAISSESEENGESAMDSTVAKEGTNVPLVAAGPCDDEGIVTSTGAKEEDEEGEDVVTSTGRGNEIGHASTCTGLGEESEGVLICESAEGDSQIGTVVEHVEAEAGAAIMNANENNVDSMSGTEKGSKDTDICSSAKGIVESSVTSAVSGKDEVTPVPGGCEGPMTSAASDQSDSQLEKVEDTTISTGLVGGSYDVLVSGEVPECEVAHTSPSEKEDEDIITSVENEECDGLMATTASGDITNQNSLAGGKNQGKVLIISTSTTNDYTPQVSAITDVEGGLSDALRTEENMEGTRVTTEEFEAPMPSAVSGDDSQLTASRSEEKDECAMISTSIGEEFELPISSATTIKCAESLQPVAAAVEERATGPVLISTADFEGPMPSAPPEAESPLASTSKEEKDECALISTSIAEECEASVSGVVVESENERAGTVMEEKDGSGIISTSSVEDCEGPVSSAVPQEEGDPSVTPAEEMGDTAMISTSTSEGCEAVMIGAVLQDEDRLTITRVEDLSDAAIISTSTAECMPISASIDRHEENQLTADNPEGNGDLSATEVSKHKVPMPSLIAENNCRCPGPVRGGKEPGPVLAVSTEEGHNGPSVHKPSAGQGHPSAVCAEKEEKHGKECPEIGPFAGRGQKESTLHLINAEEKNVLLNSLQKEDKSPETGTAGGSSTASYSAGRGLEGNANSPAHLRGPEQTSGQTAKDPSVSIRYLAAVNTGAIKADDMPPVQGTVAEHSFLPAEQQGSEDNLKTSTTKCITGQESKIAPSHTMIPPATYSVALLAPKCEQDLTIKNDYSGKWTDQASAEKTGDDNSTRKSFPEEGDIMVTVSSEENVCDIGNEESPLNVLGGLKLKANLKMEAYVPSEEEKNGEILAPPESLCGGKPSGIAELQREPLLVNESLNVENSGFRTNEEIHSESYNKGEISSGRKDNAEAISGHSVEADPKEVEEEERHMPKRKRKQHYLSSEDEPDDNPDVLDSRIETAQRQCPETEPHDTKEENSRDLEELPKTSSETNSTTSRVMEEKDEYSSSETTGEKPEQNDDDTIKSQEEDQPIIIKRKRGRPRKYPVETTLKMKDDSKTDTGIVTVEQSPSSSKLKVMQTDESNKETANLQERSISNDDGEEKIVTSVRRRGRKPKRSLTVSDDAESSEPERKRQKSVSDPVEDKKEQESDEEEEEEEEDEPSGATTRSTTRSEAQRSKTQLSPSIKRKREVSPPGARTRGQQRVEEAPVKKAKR
UniProt Q8NDI1: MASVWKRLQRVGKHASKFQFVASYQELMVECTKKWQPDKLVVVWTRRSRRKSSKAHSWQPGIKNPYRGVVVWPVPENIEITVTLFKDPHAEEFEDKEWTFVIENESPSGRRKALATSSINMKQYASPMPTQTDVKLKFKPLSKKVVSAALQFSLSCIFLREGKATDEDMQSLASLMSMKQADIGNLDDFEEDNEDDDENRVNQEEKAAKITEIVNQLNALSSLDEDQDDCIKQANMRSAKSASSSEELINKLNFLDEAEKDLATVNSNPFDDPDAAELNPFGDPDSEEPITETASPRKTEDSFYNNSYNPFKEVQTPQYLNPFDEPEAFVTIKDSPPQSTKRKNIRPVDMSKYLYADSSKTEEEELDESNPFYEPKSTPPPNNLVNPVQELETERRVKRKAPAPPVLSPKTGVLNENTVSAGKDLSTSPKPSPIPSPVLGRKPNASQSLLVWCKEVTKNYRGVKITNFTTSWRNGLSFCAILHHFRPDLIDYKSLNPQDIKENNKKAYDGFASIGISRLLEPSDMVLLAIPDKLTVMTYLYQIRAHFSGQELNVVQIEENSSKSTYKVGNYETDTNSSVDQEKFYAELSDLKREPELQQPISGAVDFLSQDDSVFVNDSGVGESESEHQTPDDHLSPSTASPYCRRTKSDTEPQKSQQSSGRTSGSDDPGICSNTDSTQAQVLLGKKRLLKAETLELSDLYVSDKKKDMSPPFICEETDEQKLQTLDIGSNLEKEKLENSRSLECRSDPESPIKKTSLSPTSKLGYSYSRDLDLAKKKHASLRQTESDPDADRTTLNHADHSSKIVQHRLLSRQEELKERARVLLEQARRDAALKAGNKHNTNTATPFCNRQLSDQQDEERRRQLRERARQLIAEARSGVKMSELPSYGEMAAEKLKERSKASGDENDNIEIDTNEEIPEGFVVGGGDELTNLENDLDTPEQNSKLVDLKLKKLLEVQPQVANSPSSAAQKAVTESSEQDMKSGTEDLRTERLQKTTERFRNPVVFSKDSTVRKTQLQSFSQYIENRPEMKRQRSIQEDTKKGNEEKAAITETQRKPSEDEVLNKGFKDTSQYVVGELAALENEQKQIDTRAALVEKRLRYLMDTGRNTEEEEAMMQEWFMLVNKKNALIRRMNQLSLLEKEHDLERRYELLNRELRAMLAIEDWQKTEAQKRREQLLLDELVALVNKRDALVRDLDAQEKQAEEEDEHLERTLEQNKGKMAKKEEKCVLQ
UniProt Q8NB15: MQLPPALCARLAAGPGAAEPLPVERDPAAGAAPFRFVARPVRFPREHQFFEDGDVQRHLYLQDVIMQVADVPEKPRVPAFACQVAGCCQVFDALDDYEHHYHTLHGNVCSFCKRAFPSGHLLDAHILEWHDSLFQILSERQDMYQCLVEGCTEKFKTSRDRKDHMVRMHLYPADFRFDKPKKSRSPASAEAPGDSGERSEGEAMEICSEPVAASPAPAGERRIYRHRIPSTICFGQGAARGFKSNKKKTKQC
UniProt Q8NCP5: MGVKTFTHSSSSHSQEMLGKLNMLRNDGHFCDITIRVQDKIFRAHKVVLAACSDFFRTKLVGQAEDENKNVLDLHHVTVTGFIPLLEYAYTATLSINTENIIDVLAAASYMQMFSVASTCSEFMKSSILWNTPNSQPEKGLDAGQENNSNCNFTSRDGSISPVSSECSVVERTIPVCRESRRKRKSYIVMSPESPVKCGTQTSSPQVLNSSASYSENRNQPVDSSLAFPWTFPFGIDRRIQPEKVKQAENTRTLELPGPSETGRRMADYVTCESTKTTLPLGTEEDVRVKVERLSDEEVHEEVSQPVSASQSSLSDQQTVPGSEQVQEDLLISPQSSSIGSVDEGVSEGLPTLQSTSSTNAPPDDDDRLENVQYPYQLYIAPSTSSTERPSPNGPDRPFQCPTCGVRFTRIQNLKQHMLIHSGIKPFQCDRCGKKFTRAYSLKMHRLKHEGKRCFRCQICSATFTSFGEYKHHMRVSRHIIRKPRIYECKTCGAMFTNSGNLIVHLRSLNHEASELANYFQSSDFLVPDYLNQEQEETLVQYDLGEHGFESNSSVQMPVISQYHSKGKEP
UniProt Q8NBN7: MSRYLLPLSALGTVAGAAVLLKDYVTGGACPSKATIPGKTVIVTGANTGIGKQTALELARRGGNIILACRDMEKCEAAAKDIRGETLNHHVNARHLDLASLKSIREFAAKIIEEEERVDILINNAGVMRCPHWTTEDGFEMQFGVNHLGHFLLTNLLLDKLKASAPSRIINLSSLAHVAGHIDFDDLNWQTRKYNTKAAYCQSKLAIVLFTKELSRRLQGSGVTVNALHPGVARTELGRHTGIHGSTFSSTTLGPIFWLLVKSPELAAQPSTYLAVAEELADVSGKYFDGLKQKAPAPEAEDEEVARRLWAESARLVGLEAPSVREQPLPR
UniProt Q8N8E2: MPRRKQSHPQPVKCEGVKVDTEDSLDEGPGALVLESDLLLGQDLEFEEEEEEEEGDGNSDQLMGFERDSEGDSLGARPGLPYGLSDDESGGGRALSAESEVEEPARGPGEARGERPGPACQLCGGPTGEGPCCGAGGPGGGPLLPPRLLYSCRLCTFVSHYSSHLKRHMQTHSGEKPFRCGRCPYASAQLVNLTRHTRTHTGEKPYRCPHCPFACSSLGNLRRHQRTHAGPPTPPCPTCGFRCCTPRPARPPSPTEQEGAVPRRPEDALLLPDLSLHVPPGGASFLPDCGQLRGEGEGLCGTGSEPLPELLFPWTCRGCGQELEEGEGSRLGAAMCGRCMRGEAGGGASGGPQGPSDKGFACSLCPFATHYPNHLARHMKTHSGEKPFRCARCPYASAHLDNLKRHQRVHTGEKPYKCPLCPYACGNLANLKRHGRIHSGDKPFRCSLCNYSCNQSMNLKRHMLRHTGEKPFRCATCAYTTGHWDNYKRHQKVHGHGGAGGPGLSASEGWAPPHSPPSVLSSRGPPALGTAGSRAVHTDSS
UniProt Q8N6N3: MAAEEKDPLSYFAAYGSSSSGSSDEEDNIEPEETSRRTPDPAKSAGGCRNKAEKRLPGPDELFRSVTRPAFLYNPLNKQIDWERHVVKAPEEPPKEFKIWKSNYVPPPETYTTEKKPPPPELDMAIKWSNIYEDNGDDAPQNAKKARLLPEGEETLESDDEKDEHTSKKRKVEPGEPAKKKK

The list shows a part of the results. Small differences around the control level are noise.

Compound in this assay: Cc1nc(Nc2ncc(C(=O)Nc3c(C)cccc3Cl)s2)cc(N2CCN(CCO)CC2)n1 [dasatinib]
In words: log2 fold change of tryptic peptide abundance, ligand vs vehicle (limited proteolysis) (log2 ratio); higher = more trypsin-susceptible (destabilized). Particulars: ligand concentration: 5 uM; sample: K562 cleared lysate.
As to “RFLNB (peptide sequence: AVYTTTLDYNCRK, peptide start residue: 176) (UniProt Q8N5W9)”, the log2 fold change is -0.119.

Take “UniProt Q8NFC6 (peptide sequence: HAYVHKPYLYSK, peptide start residue: 468)”: the log2 fold change is -0.19.

For “EHBP1 (peptide sequence: LNFLDEAEK, peptide start residue: 252) (UniProt Q8NDI1)”, the log2 fold change amounted to 0.541.

As for “ZNF511 (peptide sequence: SRSPASAEAPGDSGER, peptide start residue: 183) (UniProt Q8NB15)”, the log2 fold change was -0.341.

“UniProt Q8NCP5 (peptide sequence: TLELPGPSETGRR, peptide start residue: 253)”: the log2 fold change was 0.215.

With “RDH13 (peptide sequence: QKAPAPEAEDEEVARR, peptide start residue: 293) (UniProt Q8NBN7)”, the log2 fold change was -0.349.

In the case of “UniProt Q8N8E2 (peptide sequence: ALSAESEVEEPARGPGEAR, peptide start residue: 94)”, the log2 fold change was 0.114.

With “C1orf131 (peptide sequence: EQVEVVEFHSNKK, peptide start residue: 126) (UniProt Q8NDD1)”, the log2 fold change amounted to 0.616.

Turning to “C1orf52 (peptide sequence: PAFLYNPLNK, peptide start residue: 69) (UniProt Q8N6N3)”, the log2 fold change is -0.464.
